To fix the notation:
B1: HnRNP M (protein, UniProt P52272 1-730)
chain: MAAGVEAAAEVAATEIKMEEESGAPGVPSGNGAPGPKGEGERPAQNEKRKEKNIKRGGNRFEPYANPTKRYRAFITNIPFDVKWQSLKDLVKEKVGEVTYVELLMDAEGKSRGCAVVEFKMEESMKKAAEVLNKHSLSGRPLKVKEDPDGEHARRAMQKVMATTGGMGMGPGGPGMITIPPSILNNPNIPNEIIHALQAGRLGSTVFVANLDYKVGWKKLKEVFSMAGVVVRADILEDKDGKSRGIGTVTFEQSIEAVQAISMFNGQLLFDRPMHVKMDERALPKGDFFPPERPQQLPHGLGGIGMGLGPGGQPIDANHLNKGIGMGNIGPAGMGMEGIGFGINKMGGMEGPFGGGMENMGRFGSGMNMGRINEILSNALKRGEIIAKQGGGGGGGSVPGIERMGPGIDRLGGAGMERMGAGLGHGMDRVGSEIERMGLVMDRMGSVERMGSGIERMGPLGLDHMASSIERMGQTMERIGSGVERMGAGMGFGLERMAAPIDRVGQTIERMGSGVERMGPAIERMGLSMERMVPAGMGAGLERMGPVMDRMATGLERMGANNLERMGLERMGANSLERMGLERMGANSLERMGPAMGPALGAGIERMGLAMGGGGGASFDRAIEMERGNFGGSFAGSFGGAGGHAPGVARKACQIFVRNLPFDFTWKMLKDKFNECGHVLYADIKMENGKSKGCGVVKFESPEVAERACRMMNGMKLSGREIDVRIDRNA
B2: HnRNP R (protein, UniProt O43390 1-633)
chain: MANQVNGNAVQLKEEEEPMDTSSVTHTEHYKTLIEAGLPQKVAERLDEIFQTGLVAYVDLDERAIDALREFNEEGALSVLQQFKESDLSHVQNKSAFLCGVMKTYRQREKQGSKVQESTKGPDEAKIKALLERTGYTLDVTTGQRKYGGPPPDSVYSGVQPGIGTEVFVGKIPRDLYEDELVPLFEKAGPIWDLRLMMDPLSGQNRGYAFITFCGKEAAQEAVKLCDSYEIRPGKHLGVCISVANNRLFVGSIPKNKTKENILEEFSKVTEGLVDVILYHQPDDKKKNRGFCFLEYEDHKSAAQARRRLMSGKVKVWGNVVTVEWADPVEEPDPEVMAKVKVLFVRNLATTVTEEILEKSFSEFGKLERVKKLKDYAFVHFEDRGAAVKAMDEMNGKEIEGEEIEIVLAKPPDKKRKERQAARQASRSTAYEDYYYHPPPRMPPPIRGRGRGGGRGGYGYPPDYYGYEDYYDDYYGYDYHDYRGGYEDPYYGYDDGYAVRGRGGGRGGRGAPPPPRGRGAPPPRGRAGYSQRGAPLGPPRGSRGGRGGPAQQQRGRGSRGSRGNRGGNVGGKRKADGYNQPDSKRRQTNNQQNWGSQPIAQQPLQQGGDYSGNYGYNNDNQEFYQDTYGQQWK
B3: HnRNP L (protein, UniProt P14866 1-589)
chain: MSRRLLPRAEKRRRRLEQRQQPDEQRRRSGAMVKMAAAGGGGGGGRYYGGGSEGGRAPKRLKTDNAGDQHGGGGGGGGGAGAAGGGGGGENYDDPHKTPASPVVHIRGLIDGVVEADLVEALQEFGPISYVVVMPKKRQALVEFEDVLGACNAVNYAADNQIYIAGHPAFVNYSTSQKISRPGDSDDSRSVNSVLLFTILNPIYSITTDVLYTICNPCGPVQRIVIFRKNGVQAMVEFDSVQSAQRAKASLNGADIYSGCCTLKIEYAKPTRLNVFKNDQDTWDYTNPNLSGQGDPGSNPNKRQRQPPLLGDHPAEYGGPHGGYHSHYHDEGYGPPPPHYEGRRMGPPVGGHRRGPSRYGPQYGHPPPPPPPPEYGPHADSPVLMVYGLDQSKMNCDRVFNVFCLYGNVEKVKFMKSKPGAAMVEMADGYAVDRAITHLNNNFMFGQKLNVCVSKQPAIMPGQSYGLEDGSCSYKDFSESRNNRFSTPEQAAKNRIQHPSNVLHFFNAPLEVTEENFFEICDELGVKRPSSVKVFSGKSERSSSGLLEWESKSDALETLGFLNHYQMKNPNGPYPYTLKLCFSTAQHAS
B4: HnRNP A0 (protein, UniProt Q13151 1-305)
chain: MENSQLCKLFIGGLNVQTSESGLRGHFEAFGTLTDCVVVVNPQTKRSRCFGFVTYSNVEEADAAMAASPHAVDGNTVELKRAVSREDSARPGAHAKVKKLFVGGLKGDVAEGDLIEHFSQFGTVEKAEIIADKQSGKKRGFGFVYFQNHDAADKAAVVKFHPIQGHRVEVKKAVPKEDIYSGGGGGGSRSSRGGRGGRGRGGGRDQNGLSKGGGGGYNSYGGYGGGGGGGYNAYGGGGGGSSYGGSDYGNGFGGFGSYSQHQSSYGPMKSGGGGGGGGSSWGGRSNSGPYRGGYGGGGGYGGSSF

Results are given in words; binding and its absence hold for the method and conditions named. Binding seen in cells or lysates may run through a third protein. These calls come from enrichment with a bait or labelling near it, and not all partners need be listed. Where a sequence is shown, tags or fusion partners need not be part of it.

The assay deals with V5-tagged RE-1 silencing transcription factor (REST) (UniProt Q13127). The experiment in a line: affinity purification with mass spectrometry; V5-tagged REST from transfected HEK293FT cells immunoisolated with anti-V5 antibody on agarose beads; lysis buffer 50 mM Tris-HCl pH 7.4, 150 mM NaCl, 5 mM EDTA, 0.2% TritonX-100, 15 U/ml DNAse I; in-solution digestion, triplicate LC-MS/MS, label-free quantification against control vector.
Take B1: the binding result is on record as “binds”.
Then B2, with “binds”.
For B3 the value was “binds”; for B4, “binds”.

The record behind these values is publication PMC5157023.
